Source: PubChem BioAssay AID1259405 (NCATS, 2018)
Test: 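Silenced genes that increase secreted GFP made by CHO cells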 (primary screen). Cells: Chinese hamster CHO-K1 ovary cells with stable secreted eGFP expression. Reagent: single siRNA against mouse genes, 0.8 pmol siRNA per well (2 µl of 400 nM stock). Timing: 3 days. Detection: 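Percent of the per-plate non-targeting control median for intracellular GFP per well by laser scanning cytometry and for cell viability by ATP luminescence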. Scale: GFP, % of control: higher = more GFP per well, higher productivity; viability (ATP), % of control: higher = more viable cells (more ATP). Active means: 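a knock-down is called active if GFP reaches 120% or more of non-targeting control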.
Here is an unselected part of about 50,000 reagents. About 4,000 of them (8%) count as active. 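Mouse siRNA library applied to hamster cells; one well for each siRNA.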 Reagents against one gene are numbered here.

Pgam1 (phosphoglycerate mutase 1) #1
- GFP, % of control: 72.2
- viability (ATP), % of control: 89.1
- outcome: inactive

Pgam1 (phosphoglycerate mutase 1) #2
- GFP, % of control: 39.6
- viability (ATP), % of control: 68.9
- outcome: inactive

Pgam1 (phosphoglycerate mutase 1) #3
- GFP, % of control: 108
- viability (ATP), % of control: 48.4
- outcome: inactive

B3galnt1 #1
- GFP, % of control: 98.2
- viability (ATP), % of control: 92
- outcome: inactive

B3galnt1 #2
- GFP, % of control: 82.9
- viability (ATP), % of control: 91.1
- outcome: inactive

B3galnt1 #3
- GFP, % of control: 26.3
- viability (ATP), % of control: 26.3
- outcome: inactive

Prpf8 (pre-mRNA processing factor 8) #1
- GFP, % of control: 95.2
- viability (ATP), % of control: 104
- outcome: inactive

Prpf8 (pre-mRNA processing factor 8) #2
- GFP, % of control: 82.9
- viability (ATP), % of control: 82.8
- outcome: inactive

Mad1l1 (MAD1 mitotic arrest deficient 1-like 1) #1
- GFP, % of control: 262
- viability (ATP), % of control: 109
- outcome: active

Mad1l1 (MAD1 mitotic arrest deficient 1-like 1) #2
- GFP, % of control: 88.3
- viability (ATP), % of control: 82
- outcome: inactive

Mad1l1 (MAD1 mitotic arrest deficient 1-like 1) #3
- GFP, % of control: 71.4
- viability (ATP), % of control: 59.7
- outcome: inactive

Fpr-rs7 (formyl peptide receptor, related sequence 7) #1
- GFP, % of control: 83.1
- viability (ATP), % of control: 85.3
- outcome: inactive

Fpr-rs7 (formyl peptide receptor, related sequence 7) #2
- GFP, % of control: 78.7
- viability (ATP), % of control: 86.2
- outcome: inactive

Fpr-rs7 (formyl peptide receptor, related sequence 7) #3
- GFP, % of control: 51.4
- viability (ATP), % of control: 78.6
- outcome: inactive

Mars1 (methionine-tRNA synthetase 1) #1
- GFP, % of control: 70.9
- viability (ATP), % of control: 85.8
- outcome: inactive

Mars1 (methionine-tRNA synthetase 1) #2
- GFP, % of control: 62.3
- viability (ATP), % of control: 45.6
- outcome: inactive

Ugt1a2 (UDP glucuronosyltransferase 1 family, polypeptide A2) #1
- GFP, % of control: 101
- viability (ATP), % of control: 85.6
- outcome: inactive

Ugt1a2 (UDP glucuronosyltransferase 1 family, polypeptide A2) #2
- GFP, % of control: 77.5
- viability (ATP), % of control: 98.9
- outcome: inactive

Ugt1a2 (UDP glucuronosyltransferase 1 family, polypeptide A2) #3
- GFP, % of control: 65.2
- viability (ATP), % of control: 56.8
- outcome: inactive

H2ap (H2A.P histone) #1
- GFP, % of control: 77
- viability (ATP), % of control: 48.6
- outcome: inactive

H2ap (H2A.P histone) #2
- GFP, % of control: 83.5
- viability (ATP), % of control: 78.6
- outcome: inactive

H2ap (H2A.P histone) #3
- GFP, % of control: 41.2
- viability (ATP), % of control: 70.9
- outcome: inactive

Ldhb (lactate dehydrogenase B) #1
- GFP, % of control: 97.6
- viability (ATP), % of control: 104
- outcome: inactive

Ldhb (lactate dehydrogenase B) #2
- GFP, % of control: 98.6
- viability (ATP), % of control: 78.8
- outcome: inactive

Ldhb (lactate dehydrogenase B) #3
- GFP, % of control: 66.2
- viability (ATP), % of control: 69
- outcome: inactive

Pir (pirin) #1
- GFP, % of control: 139
- viability (ATP), % of control: 84.2
- outcome: active

Pir (pirin) #2
- GFP, % of control: 158
- viability (ATP), % of control: 68
- outcome: active

Pir (pirin) #3
- GFP, % of control: 61.5
- viability (ATP), % of control: 72
- outcome: inactive

Rab3gap1 (RAB3 GTPase activating protein subunit 1) #1
- GFP, % of control: 50.8
- viability (ATP), % of control: 49.6
- outcome: inactive

Rab3gap1 (RAB3 GTPase activating protein subunit 1) #2
- GFP, % of control: 81.8
- viability (ATP), % of control: 75.6
- outcome: inactive

Rab3gap1 (RAB3 GTPase activating protein subunit 1) #3
- GFP, % of control: 119
- viability (ATP), % of control: 106
- outcome: inactive

Grina #1
- GFP, % of control: 74
- viability (ATP), % of control: 64.4
- outcome: inactive

Grina #2
- GFP, % of control: 38.1
- viability (ATP), % of control: 61
- outcome: inactive

Grina #3
- GFP, % of control: 77.6
- viability (ATP), % of control: 50.6
- outcome: inactive

Tas1r1 (taste receptor, type 1, member 1) #1
- GFP, % of control: 81.1
- viability (ATP), % of control: 61.4
- outcome: inactive

Tas1r1 (taste receptor, type 1, member 1) #2
- GFP, % of control: 112
- viability (ATP), % of control: 93.8
- outcome: inactive

Tas1r1 (taste receptor, type 1, member 1) #3
- GFP, % of control: 64.5
- viability (ATP), % of control: 66.3
- outcome: inactive

Alkbh2 (alkB homolog 2, alpha-ketoglutarate-dependent dioxygenase) #1
- GFP, % of control: 34
- viability (ATP), % of control: 49.2
- outcome: inactive

Alkbh2 (alkB homolog 2, alpha-ketoglutarate-dependent dioxygenase) #2
- GFP, % of control: 37
- viability (ATP), % of control: 62.1
- outcome: inactive

Alkbh2 (alkB homolog 2, alpha-ketoglutarate-dependent dioxygenase) #3
- GFP, % of control: 88
- viability (ATP), % of control: 91
- outcome: inactive

In a second layout: 5 of the entries above
target gene | reagent | GFP, % of control | viability (ATP), % of control | outcome
Rab3gap1 (RAB3 GTPase activating protein subunit 1) | 2 | 81.8 | 75.6 | inactive
Rab3gap1 (RAB3 GTPase activating protein subunit 1) | 3 | 119 | 106 | inactive
Grina | 1 | 74 | 64.4 | inactive
Grina | 2 | 38.1 | 61 | inactive
Grina | 3 | 77.6 | 50.6 | inactive
